# In PubChem BioAssay AID504834 (National Center for Advancing Translational Sciences (NCATS), 2011):
# Screen size: about 320,000 compounds; about 22,000 (6.9%) were called active. Inconclusive results, whose numbers are uncertain, are shown with a selection of clear calls. Calls follow the shape of the dose curve; as a rule, active = well fitted inhibition curve with a large enough effect; inconclusive = small, poorly fitted or top-dose-only effect, or another doubt; inactive = no such curve, though single readings can be large or run the other way. A potency beside an inconclusive call is a rough fit, not a confirmed value.
# Test: Primary qHTS for delayed death inhibitors of the malarial parasite plastid, 96 hour incubation
# Details: P. falciparum luciferase reporter growth; series mostly up to 28.7 µM
# Procedure, shortened: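 Cell-based qHTS: luciferase-tagged P. falciparum in erythrocytes (2% hematocrit, 0.05% parasitemia final) incubated with compounds for 96 hours, 37 C, 5% CO2; luciferase detection reagent then added and luminescence measured.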
# Potency is read from the fitted curve at half-maximal effect.
row,Structure (SMILES),Potency
1,Nc1nc(CN2CCCCCC2)nc(Nc2ccccc2)n1,"inconclusive: 18.5 µM [inhibitor, single point]"
2,COc1ccc(C(=O)NC(=S)N2CCOCC2)cc1OC,inactive
3,CC1(C)C(CSc2nc3ccccc3[nH]2)C1(Cl)Cl (stereo unspecified),"inconclusive: 18.5 µM [inhibitor, single point]"
4,O=C(CCc1nc2ccccc2c(=O)[nH]1)N1CCN(S(=O)(=O)c2ccc(F)cc2)CC1,"inconclusive: 9.28 µM [inhibitor, partial curve]"
5,CCN1C(=O)c2ccccc2S(=O)(=O)c2ccc(C(=O)N3CCOCC3)cc21,inactive
6,CCCCNC(=S)NNc1c(Cl)cc(Cl)cc1Cl,active: 8.28 µM
7,O=C(NC1CCCC1)C(c1cc2c(cc1[N+](=O)[O-])OCO2)N1CCCC1 (stereo unspecified),inactive
8,CC(C)C(=O)Nc1nnc(NC(=S)Nc2ccccc2)s1,active: 11.7 µM
9,O=C(O)CC1(O)C(=O)N(Cc2ccccc2)c2ccccc21 (stereo unspecified),inactive
10,CCOc1ccccc1NC(=O)Nc1ccc(CC#N)cc1,inactive
11,CN(C)C(CNC(=O)Cc1cccc(C(F)(F)F)c1)c1ccccc1 (stereo unspecified),"inconclusive: 11.7 µM [inhibitor, single point]"
12,CCN(CC)CCNC(=S)Nc1ccc2nc(N3CCOCC3)cc(C)c2c1,inactive
13,O=C(NCCc1ccccc1)C1CCCN(c2ncnc3c2nc2n3CCCCC2)C1 (stereo unspecified),"inconclusive: 1.17 µM [inhibitor, full curve]"
14,COc1ccc(CNC(=O)C2CCN(S(=O)(=O)N3CCCCC3)CC2)c(OC)c1,inactive
15,CCCCc1cc(=O)oc2c3c(cc(OCC(=O)N4CCC[C@H]4C(=O)O)c12)OC(C)(C)CC3,"inconclusive: 18.5 µM [inhibitor, single point]"
16,COc1ccc(N2CCN(C(=O)CCNS(=O)(=O)c3cc(Br)cnc3N)CC2)cc1,"inconclusive: 18.5 µM [inhibitor, single point]"
17,COc1ccccc1-c1nc2cc3ccccc3cc2nc1-c1ccccc1,"inconclusive: 10.4 µM [inhibitor, single point]"
18,COC(=O)c1cc(-c2cccs2)nn1-c1ccccc1,inactive
19,Cc1nc(SCC(=O)N(CC(C)C)C2CCS(=O)(=O)C2)c2c(C)c(C)sc2n1 (stereo unspecified),"inconclusive: 18.5 µM [inhibitor, single point]"
20,COc1ccc(CN(CC(=O)NCC2CCCO2)C(=O)CNS(=O)(=O)c2ccc(C)cc2)cc1 (stereo unspecified),"inconclusive: 10.4 µM [inhibitor, partial curve]"
21,Oc1c(C(c2ccccc2Cl)N2CCCC2)ccc2cccnc12 (stereo unspecified),"inconclusive: 1.47 µM [inhibitor, full curve]"
22,Cc1cccc(OCC(=O)Nc2ccc3c(c2)nc(CCN2CCN(C)CC2)n3C)c1,"inconclusive: 18.5 µM [inhibitor, single point]"
23,CS(=O)(=O)Cc1ccc(C(=O)NC(c2ccccc2)c2ccccc2)cc1,inactive
24,Cc1ccc2c(c1)nnn2C1CCN(CC(=O)NNC(=O)c2ccco2)CC1,inactive

row,Structure (SMILES),Potency
1,CNC(=S)NNC(=O)c1sc2cc(C(F)(F)F)cnc2c1-c1cccnc1,"inconclusive: 18.5 µM [inhibitor, single point]"
2,O=C(NCc1cccnc1)Nc1ccccc1C(F)(F)F,"inconclusive: 18.5 µM [inhibitor, single point]"
3,O=C(C1CCCN1S(=O)(=O)c1ccc(Cl)c(Cl)c1)N1CCCCC1 (stereo unspecified),"inconclusive: 18.5 µM [inhibitor, single point]"
4,CCOC(=O)c1[nH]c(C)c(/C(O)=C2\C(=O)C(=O)N(CCCN3CCOCC3)C2c2cccnc2)c1C (stereo unspecified),"inconclusive: 18.5 µM [inhibitor, single point]"
5,Cc1ccc(C(=O)NCC(=O)N2CCC(Cc3ccccc3)CC2)cc1,"inconclusive: 16.5 µM [inhibitor, single point]"
6,COCCCNC(=O)COc1ccc(S(=O)(=O)NCc2ccccc2)cc1Cl,"inconclusive: 14.7 µM [inhibitor, partial curve, poor fit]"
7,Cc1nc(-c2ccc(NC(=O)C(C)(C)C)cc2)c(-c2ccccc2)o1,active: 4.15 µM
8,Cc1ccc(C(=O)N2CCN(c3ccc([N+](=O)[O-])cc3-n3cccc3)CC2)cc1,"inconclusive: 2.08 µM [inhibitor, full curve]"
9,Cc1c(OCC(=O)NCCN2CCOCC2)ccc2c1oc(=O)c1ccccc12,"inconclusive: 16.5 µM [inhibitor, single point]"
10,COc1cccc(OC)c1C(=O)Nn1c(C2CCC2)nc2ccccc2c1=O,"inconclusive: 10.4 µM [inhibitor, partial curve, poor fit]"
11,Cc1ccccc1Nc1nc(N)nc(COC(=O)CCS(=O)(=O)c2ccc(Cl)cc2)n1,inactive
12,O=C(/C=C/c1ccccc1)NC(NC(=S)Nc1cc(Cl)ccc1Cl)C(Cl)(Cl)Cl (stereo unspecified),active: 10.4 µM
13,Cc1ccc(-n2nnnc2CSc2nnc(-c3ccc(O)cc3)o2)cc1,"inconclusive: 13.1 µM [inhibitor, partial curve]"
14,CSc1nnc(NC(=O)c2cc(=O)c3cc(C)cc(C)c3o2)s1,"inconclusive: 3.7 µM [inhibitor, partial curve, poor fit]"
15,O=C(COC(=O)C1CCN(S(=O)(=O)c2ccc3c(c2)OCCO3)CC1)Nc1cc(C(F)(F)F)ccc1Cl,inactive
16,COc1ccccc1-c1oc2ccccc2c1C#CCCCCO,"inconclusive: 13.1 µM [inhibitor, single point]"
17,Cn1cc(S(=O)(=O)N2CCN(c3cccc(C(F)(F)F)c3)CC2)c(=O)n(C)c1=O,"inconclusive: 18.5 µM [inhibitor, single point]"
18,CCOC(=O)CSc1nc2c(sc(=S)n2-c2ccc(OCC)cc2)c(=O)[nH]1,"inconclusive: 18.5 µM [inhibitor, single point]"
19,O=C(Nc1ccccc1C(=O)N1CCOCC1)C1CC(=O)N(c2ccc(F)cc2)C1 (stereo unspecified),"inconclusive: 18.5 µM [inhibitor, single point]"
20,Cc1[nH]c(=O)[nH]c(=O)c1/C=N/NC(=O)CCCCCNC(=O)OC(C)(C)C,"inconclusive: 11.7 µM [inhibitor, single point]"
21,Cc1cc(NC(=O)c2ccccc2F)cc(C)c1OCC(=O)N1CCOCC1,inactive
22,Cc1cc(C)c(C(=O)CSc2nc3ccccc3c(=O)[nH]2)cc1C,"inconclusive: 10.4 µM [inhibitor, single point]"
23,CCC(=O)Nc1ccc(-c2cc3ccccc3oc2=O)cc1,inactive
24,Cc1cccc(NC(=O)CN2CCN(C(=O)c3cncn3-c3ccc(F)cc3)CC2)c1C,"inconclusive: 8.28 µM [inhibitor, single point]"

row,Structure (SMILES),Potency
1,CC(C)CCNC(=S)Nc1ccc(Br)cc1,inactive
2,CCC1(C)Cc2nc3[nH]c(=S)n(-c4ccc(C)cc4)c(=O)c3cc2CO1 (stereo unspecified),inactive
3,O=C(NCCc1ccccc1)C1CCN(S(=O)(=O)c2cccnc2)CC1,active: 7.38 µM
4,CC(C)c1ccc(NC(=O)C2CC(=O)N=C(N)S2)cc1 (stereo unspecified),"inconclusive: 0.522 µM [inhibitor, partial curve, poor fit]"
5,Cc1cccc(N(C)S(=O)(=O)c2ccc3[nH]cc(C(=O)N4CCOCC4)c(=O)c3c2)c1,"inconclusive: 18.5 µM [inhibitor, single point]"
6,CCOC(=O)CNC(=O)CSc1nc(Cc2ccccc2)nc2ccccc12,"inconclusive: 10.4 µM [inhibitor, single point]"
7,CCOC(=O)C1=C(c2ccccc2)Nc2nc(C)nn2C1c1cccc(OC)c1OC (stereo unspecified),active: 9.28 µM
8,CCOC(=O)CSc1nnc(CNC(=O)Cc2ccccc2)n1C,"inconclusive: 0.0029 µM [inhibitor, full curve, poor fit]"
9,S=C(NCCc1ccccc1)N1CCN(C(=S)NCCc2ccccc2)CC1,inactive
10,Nc1nc2n(n1)C(c1cccc(Cl)c1)CC(c1ccc(F)cc1)N2 (stereo unspecified),"inconclusive: 10.4 µM [inhibitor, single point]"
11,CN1CCc2c(sc3c2C(=O)NC(/C=C\c2ccccc2)N3)C1 (stereo unspecified),inactive
12,O=C(O)CSc1c2c(nc3cc(C(=O)Nc4ccc(F)c(Cl)c4)ccc13)CCCC2,active: 1.04 µM
13,O=C(O)c1ccc(N2C(=O)/C(=C/c3ccc(-c4ccc([N+](=O)[O-])cc4)o3)C=C2c2ccccc2)cc1,inactive
14,CCOC(=O)c1c(/N=C/C2C(=O)CCCC2=O)sc2c1CCCC2,"inconclusive: 11.7 µM [inhibitor, partial curve, poor fit]"
15,CCCOc1ccc(OC(=O)c2ccc(Br)o2)cc1,"inconclusive: 1.85 µM [inhibitor, partial curve, poor fit]"
16,O=C(CCl)N1c2ccccc2SCC1c1ccccc1 (stereo unspecified),"inconclusive: 16.5 µM [inhibitor, single point]"
17,O=C(NCC1CCCO1)C(=O)N/N=C/c1ccc(O)c(Cl)c1 (stereo unspecified),active: 4.15 µM
18,CN(C)C(=O)c1ccc(-c2nnc(NCc3ccccc3)c3ccccc23)cc1,active: 2.94 µM
19,O=C(NNC(=O)c1cccc(S(=O)(=O)N2CCN(c3ccccc3)CC2)c1)c1ccc(Cl)cc1,"inconclusive: 13.1 µM [inhibitor, single point]"
20,CCCN(CCC)Cc1c(C(=O)N/N=C/c2ccncc2)nnn1-c1nonc1N,inactive
21,O=C(CSc1nnc(-c2ccncc2)n1CC1CCCO1)Nc1nccs1 (stereo unspecified),"inconclusive: 5.22 µM [inhibitor, partial curve, poor fit]"
22,CCOc1ccc(NC(=O)CSc2nc3ccccc3nc2N2CCOCC2)cc1,active: 11.7 µM
23,Cc1cc(C)c(NC(=O)CNC(=O)COC(=O)/C=C/c2cccs2)c(C)c1,inactive

# Reprinted at random: 6 records from the list, in no set order.
row,Structure (SMILES),Potency
8,CC(C)C(=O)Nc1nnc(NC(=S)Nc2ccccc2)s1,active: 11.7 µM
11,CN1CCc2c(sc3c2C(=O)NC(/C=C\c2ccccc2)N3)C1 (stereo unspecified),inactive
7,O=C(NC1CCCC1)C(c1cc2c(cc1[N+](=O)[O-])OCO2)N1CCCC1 (stereo unspecified),inactive
15,O=C(COC(=O)C1CCN(S(=O)(=O)c2ccc3c(c2)OCCO3)CC1)Nc1cc(C(F)(F)F)ccc1Cl,inactive
19,O=C(NNC(=O)c1cccc(S(=O)(=O)N2CCN(c3ccccc3)CC2)c1)c1ccc(Cl)cc1,"inconclusive: 13.1 µM [inhibitor, single point]"
16,O=C(CCl)N1c2ccccc2SCC1c1ccccc1 (stereo unspecified),"inconclusive: 16.5 µM [inhibitor, single point]"
